Measured values taken from PubChem BioAssay AID1347131 (National Center for Advancing Translational Sciences (NCATS), 2019).
Out of some 410,000 compounds screened, about 2,000 (0.49%) were called active. The inconclusive results got no clear call from the source; some entries with a clear call stand among them for comparison. Calls follow the shape of the full dose curve; tested in HEK293 reporter line. Potencies beside an inconclusive call are fits to weak or partial responses and may not hold up.

Assay: qHTS Assay for Foot and Mouth Disease Virus Antivirals: Primary Screen against the MLPCN compound library; also: nearly all actives have a fitted effect of over 55% in size
Conditions: FMDV antiviral cell-based qHTS; series mostly up to 57.9 µM
Potency is read from the fitted curve at half-maximal effect.

| Structure (SMILES) | Potency |
| --- | --- |
| O=C(CN1C(=O)c2ccccc2S1(=O)=O)c1ccc(F)cc1 | inconclusive: 15.8 µM [inhibitor, single point] |
| COC(=O)c1ccc2c(c1)C(C)(C)C(/C=C/c1ccc(O)cc1)=[N+]2C | inconclusive: 10 µM [inhibitor, full curve, poor fit] |
| CCc1nc(SCC(=O)N2CCN(c3ccccc3)CC2)c2oc3ccccc3c2n1 | active: 25.1 µM |
| CC(=O)N1c2ccc(S(=O)(=O)NCC3CCC(C(=O)Nc4ccc(C)c(C)c4)CC3)cc2CC1C (stereo not drawn) | inconclusive: 17.8 µM [inhibitor, partial curve, poor fit] |
| Cc1ccc(NC(=O)c2ccc(CNS(=O)(=O)c3ccc4c(c3)C(C)(C)C(=O)N4C)cc2)cc1C | inconclusive: 35.5 µM [inhibitor, single point] |
| COC(=O)c1ccc2nc(Nc3nc4c(F)cc(F)cc4s3)sc2c1 | inconclusive: 0.251 µM [inhibitor, full curve, poor fit] |
| CSc1ccc(Cn2c(C)c(C(=O)NCc3ccc(C(C)C)cc3)sc2=O)cc1 | inconclusive: 25.1 µM [inhibitor, partial curve, poor fit] |
| COc1ccc(N/C=C/C(=O)c2ccccc2)cc1 | inconclusive: 10 µM [inhibitor, partial curve, poor fit] |
| O=C(CN1CCN(C(=O)c2ccco2)CC1)N1CCc2[nH]c3ccccc3c2C1 | inconclusive: 7.08 µM [inhibitor, full curve] |
| CC(=O)c1ccc(-c2cc([C@H]3[C@H]4C=CC[C@@H](C)[C@@H]4C(=O)N3Cc3ccccc3)ccc2F)cc1 | inactive |
| CCC(C(=O)Nc1cc(C)nn1-c1nc(C)cc(C)n1)c1ccccc1 (stereo not drawn) | inconclusive: 31.6 µM [inhibitor, partial curve, poor fit] |
| Cc1ccc([N+](=O)[O-])c(C)[n+]1C | inconclusive: 2.24 µM [inhibitor, full curve] |
| CC(C)(C)c1ccc(/C=N/Nc2cccc(C(=O)O)c2)cc1 | inconclusive: 44.7 µM [inhibitor, partial curve, poor fit] |
| CN(C)S(=O)(=O)c1ccc(NC(=O)COC(=O)c2n[nH]c3ccccc23)cc1 | inconclusive: 22.4 µM [inhibitor, partial curve, poor fit] |
| O=c1[nH]c(CCl)nc2cc(-c3ccc(Cl)cc3)sc12 | inconclusive: 12.6 µM [inhibitor, partial curve, poor fit] |
| CS(=O)(=O)c1ccc(C(=O)OCC(=O)NC23CC4CC(CC(C4)C2)C3)cc1[N+](=O)[O-] | inconclusive: 35.5 µM [inhibitor, single point] |
| O=C(O)/C=C/c1cnn(-c2ccccc2)c1 | inconclusive: 11.2 µM [inhibitor, single point] |
| CCn1c(=O)c([N+](=O)[O-])c(NCCc2ccc(OC)c(OC)c2)c2ccccc21 | inconclusive: 22.4 µM [inhibitor, partial curve, poor fit] |
| O=C(NCCNC(=O)c1ccc(Cl)cc1Cl)c1ccc(Cl)cc1Cl | inconclusive: 8.91 µM [inhibitor, full curve] |

Single entries from above.
CSc1ccc(Cn2c(C)c(C(=O)NCc3ccc(C(C)C)cc3)sc2=O)cc1 | Potency: inconclusive: 25.1 µM [inhibitor, partial curve, poor fit]
CC(C)(C)c1ccc(/C=N/Nc2cccc(C(=O)O)c2)cc1 | Potency: inconclusive: 44.7 µM [inhibitor, partial curve, poor fit]

Next part:

| Structure (SMILES) | Potency |
| --- | --- |
| COc1ccc(CNC(=O)CN(Cc2ccc(Cl)cc2)S(=O)(=O)c2ccccc2)cc1 | inconclusive: 28.2 µM [inhibitor, partial curve, poor fit] |
| CCOC(=O)N1CCN(C(=O)c2ccc(CSc3ccc(Cl)cc3)cc2)CC1 | inconclusive: 25.1 µM [inhibitor, partial curve, poor fit] |
| O=C(O)CN1C(=O)/C(=C/c2ccccc2Br)Oc2ccccc21 | inconclusive: 3.16 µM [inhibitor, full curve] |
| Cc1c(C)n(C(=O)CN2CCN(c3ccccn3)CC2)c2ccccc12 | inconclusive: 31.6 µM [inhibitor, partial curve, poor fit] |
| COc1ccc(N=C(C)C2=C(O)c3ccccc3C2=O)cc1 | inconclusive: 17.8 µM [inhibitor, partial curve] |
| CCOC(=O)C1(CCOc2ccccc2)CCN(Cc2ccc(OC)c(O)c2)CC1 | inactive |
| OC(CN=c1sc2ccccc2n1CC(O)COc1ccccc1)COc1ccccc1 (stereo not drawn) | inconclusive: 20 µM [inhibitor, partial curve, poor fit] |
| C#CCOC(=O)c1ccccc1C(=O)n1nnc2ccccc21 | inconclusive: 22.4 µM [inhibitor, partial curve, poor fit] |
| COc1cc(/C=C2\CC/C(=C\c3cc(OC)c(O)c(OC)c3)C2=O)cc(OC)c1O | inconclusive: 22.4 µM [inhibitor, partial curve, poor fit] |
| O=c1oc2ccccc2cc1-c1cn(-c2ccccc2)c(=S)[nH]1 | inconclusive: 12.6 µM [inhibitor, partial curve, poor fit] |
| C#CCOc1ccc(/C=C2/C(=O)ON=C2C)cc1Br | inconclusive: 12.6 µM [inhibitor, single point] |
| CC(C)(C)C(=O)N/C(N)=N/c1nc2ccccc2o1 | inconclusive: 28.2 µM [inhibitor, single point] |
| CCn1c(SCCOc2ccc(Cl)cc2)nnc1-c1cccs1 | inactive |
| CCN1C(=O)/C(=C/C=C2/SCCN2C)SC1=S | inconclusive: 7.08 µM [inhibitor, partial curve] |
| O=C(OCc1ccc([N+](=O)[O-])cc1)c1cc(S(=O)(=O)N2CCCCC2)ccc1N1CCOCC1 | inconclusive: 14.1 µM [inhibitor, partial curve, poor fit] |
| Cc1ccc(C(=O)NN=CC(=O)c2ccccc2)c(C)c1 | inconclusive: 17.8 µM [inhibitor, single point] |
| N/C(=N\OC(=O)c1ccc2ccccc2c1)c1ccccn1 | inconclusive: 17.8 µM [inhibitor, single point] |
| CN(C)c1ccc(/C=N/NC(=O)c2ccccn2)cc1 | inconclusive: 22.4 µM [inhibitor, single point] |
| CCN(CC)CCCNC(=O)Cn1cc2c(n1)CCC(C)C2 (stereo not drawn) | inconclusive: 7.08 µM [inhibitor, partial curve, poor fit] |
